From patent US20250152688A1 (priority 2021, published 2025) come the findings set out here.

Data set [1] is described as follows: general procedure: Fmoc solid-phase peptide synthesis; Rink amide resin; Sieber resin (Fmoc-Sieber-polystyrene, 0.61 mmol/g); DIC/Oxyma pure and DIPEA. The conditions noted are these: whole synthesis, scale of the general procedure 0.3 mmol.
Data set [2] is described as follows: general procedure: Fmoc solid-phase peptide synthesis; Fmoc-Sieber-polystyrene resin; DIC/Oxyma pure and DIPEA. The conditions noted are these: whole synthesis, scale 0.3 mmol.

For some assays here: End groups of sequences in plain letters are not given here.

In the case of VLNYERARRPGLLGA, the “purity (crude or final not stated)” value in data set [1] was 95% pure.

In data set [2], “DBCO-Lys(Br)-Lys(Br)-Lys(Br)-Ser(PG)-NH2” displayed an isolated yield of 30% yield.

In the case of FSVLNYERARRPGLL, the “purity (crude or final not stated)” value in data set [1] turned out to be 95% pure.

On to RPGLLGASVLGLDDI, for which the “purity (crude or final not stated)” value in data set [1] stood at 95% pure.

For the substance ALFSVLNYERARRPGLLGASVLGLDDIHRA, the “purity (crude or final not stated)” value in data set [1] is recorded as 96% pure.
